PubChem BioAssay AID504774, Drosophila RNAi Screening Center | 2011
The deposit covers about 23,000 reagents; below is an unselected part of those that have a named target and a result. 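Values are quantile-normalised luminescence on an arbitrary scale; higher means more cells surviving MMS.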 A plus sign joins genes that one reagent is predicted to hit. Not all columns of the deposit are shown.

Assay: 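Fly genes whose loss alters survival after alkylation damage to DNA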 (primary screen)
Cells: Drosophila Kc167 cells
Knock-down reagent: long dsRNA against Drosophila genes, about 0.25 µg dsRNA per well
Timing: about 6 days: 3 days knock-down, then 3 days with or without MMS
Conditions: methyl methanesulphonate 0.004% (w/v) for 3 days after knock-down
Detection: 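Viability in wells given MMS, read as ATP luminescence, normalised by quantiles plate by plate and averaged across replicates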
Scale: mean viability with MMS and viability with MMS: higher = more surviving cells after MMS

| gene | DRSC id | mean viability with MMS | viability with MMS, replicate 1 |
| --- | --- | --- | --- |
| CG11997 (GeneID 41093) | DRSC14464 | 3.46e6 | 3.91e6 |
| ste24b (GeneID 36907) | DRSC07315 | 3.56e6 | 3.99e6 |
| CG1850 (GeneID 35647) | DRSC06762 | 3.58e6 | 3.98e6 |
| CG32855 (GeneID 318250) | DRSC13131 | 3.45e6 | 3.95e6 |
| mthl7 (GeneID 38910) | DRSC10852 | 3.50e6 | 3.94e6 |
| Etl1 (GeneID 34311) | DRSC02911 | 3.56e6 | 4.14e6 |
| Tsp (GeneID 33941) | DRSC02144 | 3.46e6 | 3.96e6 |
| Tsp (GeneID 33941) | DRSC02145 | 3.53e6 | 3.93e6 |
| CG34032 (retired record) (GeneID 3885630) | DRSC09225 | 3.41e6 | 3.96e6 |
| CG7912 (GeneID 43561) | DRSC16343 | 3.56e6 | 4.05e6 |
| exex (GeneID 38884) | DRSC10972 | 3.61e6 | 4.14e6 |
| Or45b (GeneID 35980) | DRSC07488 | 3.58e6 | 3.96e6 |
| CG33768 (GeneID 3771840) | DRSC11715 | 3.39e6 | 3.86e6 |
| CG42534 (GeneID 43298) | DRSC14722 | 3.30e6 | 3.68e6 |
| CG42534 (GeneID 43298) | DRSC14759 | 3.20e6 | 3.61e6 |
| CG42534 (GeneID 43298) | DRSC16072 | 3.58e6 | 4.13e6 |
| CG42534 (GeneID 43298) | DRSC23131 | 3.64e6 | 4.27e6 |
| CG42534 (GeneID 43298) | DRSC23246 | 2.63e6 | 3.56e6 |
| eIF3a (GeneID 40563) | DRSC12339 | 3.13e6 | 3.62e6 |
| HemK2 + Snapin | DRSC00736 | 3.48e6 | 3.97e6 |
| HemK2 + Snapin | DRSC00737 | 3.45e6 | 3.87e6 |
| CG13075 (GeneID 39756) | DRSC09958 | 3.67e6 | 4.11e6 |
| Cyp6w1 (GeneID 35543) | DRSC04909 | 3.55e6 | 4.14e6 |
| Patronin (GeneID 36978) | DRSC06756 | 3.59e6 | 4.11e6 |
| Patronin (GeneID 36978) | DRSC06757 | 3.46e6 | 3.92e6 |
| Patronin (GeneID 36978) | DRSC06994 | 3.50e6 | 3.98e6 |
| Tcs6 + PIG-P | DRSC13742 | 3.49e6 | 3.91e6 |
| Tcs6 + PIG-P | DRSC14893 | 3.49e6 | 3.97e6 |
| CG13073 (GeneID 39773) | DRSC09956 | 3.55e6 | 3.93e6 |
| AstC-R2 (GeneID 40019) | DRSC10051 | 3.51e6 | 3.94e6 |
| CG4842 (GeneID 39817) | DRSC10453 | 3.51e6 | 3.93e6 |
| CG33769 (GeneID 3772499) | DRSC11716 | 3.39e6 | 3.89e6 |
| fl(2)d (GeneID 36527) | DRSC07620 | 3.54e6 | 4.04e6 |
| CG8298 (GeneID 36282) | DRSC07138 | 3.68e6 | 3.97e6 |
| Ogg1 (GeneID 31806) | DRSC17738 | 3.35e6 | 4.19e6 |
| galla-2 (GeneID 39221) | DRSC10936 | 3.66e6 | 3.76e6 |
| galla-2 (GeneID 39221) | DRSC21949 | 3.41e6 | 3.95e6 |
| Dtwd2 (GeneID 40873) | DRSC12501 | 3.43e6 | 3.89e6 |
| CG1971 (GeneID 43755) | DRSC15406 | 3.55e6 | 4.21e6 |
| CG4476 (GeneID 39056) | DRSC10424 | 3.34e6 | 3.72e6 |
| MtnB (GeneID 42424) | DRSC22744 | 3.70e6 | 4.13e6 |
| DIP-iota (GeneID 33925) | DRSC02140 | 3.58e6 | 4.13e6 |
| CG13699 (GeneID 40008) | DRSC10048 | 3.49e6 | 3.95e6 |
| bun (GeneID 34665) | DRSC01253 | 3.35e6 | 3.60e6 |
| bun (GeneID 34665) | DRSC01255 | 3.20e6 | 3.61e6 |
| bun (GeneID 34665) | DRSC03500 | 2.82e6 | 3.17e6 |
| bun (GeneID 34665) | DRSC23041 | 3.25e6 | 3.60e6 |
| Gr39b (GeneID 117347) | DRSC01848 | 3.61e6 | 4.06e6 |
| Dus4 (GeneID 35179) | DRSC02066 | 3.56e6 | 3.97e6 |
| CG13625 (GeneID 42931) | DRSC14627 | 3.28e6 | 3.73e6 |
| CG17267 (GeneID 42454) | DRSC15207 | 3.37e6 | 3.79e6 |
| CG6414 (GeneID 31352) | DRSC18401 | 3.68e6 | 4.18e6 |
| CG34015 (GeneID 3885570) | DRSC19140 | 3.61e6 | 4.09e6 |
| gce (GeneID 32457) | DRSC19613 | 3.48e6 | 3.91e6 |
| gce (GeneID 32457) | DRSC19974 | 3.32e6 | 3.73e6 |
| Pex16 (GeneID 40293) | DRSC11750 | 3.59e6 | 4.08e6 |
| CG9903 (GeneID 32621) | DRSC20213 | 3.63e6 | 4.13e6 |
| CG30271 (GeneID 246518) | DRSC04170 | 3.79e6 | 4.16e6 |
| CG14227 (GeneID 32978) | DRSC19584 | 2.06e6 | 4.24e6 |
| GC2 (GeneID 41449) | DRSC14476 | 3.44e6 | 3.93e6 |
| ValRS-m (GeneID 39023) | DRSC10535 | 3.42e6 | 3.91e6 |
| mRpS18B (GeneID 35299) | DRSC02107 | 3.49e6 | 4.01e6 |
| CG33137 (GeneID 36449) | DRSC22131 | 3.57e6 | 4.01e6 |
| IFT20 + CG10395 | DRSC22660 | 3.45e6 | 3.92e6 |
| Tep3 (GeneID 34045) | DRSC03452 | 3.12e6 | 3.47e6 |
| TwdlW (GeneID 42075) | DRSC15540 | 3.55e6 | 4.11e6 |
| Ccp84Aa (GeneID 40825) | DRSC12586 | 3.55e6 | 4.05e6 |
| Vps13D (GeneID 39448) | DRSC09818 | 3.55e6 | 4.13e6 |
| Vps13D (GeneID 39448) | DRSC09819 | 3.76e6 | 4.34e6 |
